Laboratory results taken from US20130280187A1, “Compositions and Methods for Improving the Appearance of Facial Pores” (THE PROCTER & GAMBLE COMPANY, priority 2012, published 2013).
“And” between values parts separate entries of the source, which are not always exact repeats. Equal values may be shown once.

Tested on: procollagen I
Assay: In vitro skin biomarker test, procollagen I ELISA in MatTek human skin equivalent
Format: cell-based
Details: single skin cultures, 24 hours after treatment; Glyco-Repair 3% topical, TGF-b 2 ng/mL in media
Protocol: The model used in the test is a MatTek™ brand human skin equivalent available from the MatTek Corporation, which is a full thickness culture system that emulates normal human skin properties and function. The MatTek™ brand skin model contains a three-dimensional, highly differentiated human epidermis with 8-12 cell layers including basal, spinous, granular and stratum corneum layers. The epidermis is grown above a human dermal fibroblast-containing collagen matrix. The skin model is configured to permit the topical application of test materials to the stratum corneum surface of the model. The skin model cultures are supplied in 24-well plate. Each well of the plate includes a snap-well fitting and the skin culture in a media-supplemented agarose gel.
Prior to testing, the skin model cultures are examined for visual defects and equilibrated overnight at 37° C., 5% CO2, and 95% RH. The skin cultures were transferred to fresh 24-well plates by removing the snap-well fitting along with the skin culture and placing it in a well of the new plate. […]
Twenty-four hours after treatment, the skin cultures were removed from the incubator and visually inspected for defects (e.g., to see if media leaked up through the culture insert). […] The supernatant was collected and analyzed with a Micro BCA kit to quantitate protein concentration. […]

transforming growth factor beta [TGF-b]
Protein (total protein): 2 µg and 3 µg
